Measured values: publication PMC3714738
No constants are given. Whether binding was seen depends on the method and setting. Binding seen in cells or lysates may run through a third protein. Binding calls can cover weak binding; strength is not graded here. Values belong to the molecule of their own block, whether it stands above or below them.

What was measured:
[1] = molecular target: T1, Wash1 (Wiskott–Aldrich Syndrome Protein and SCAR Homologue 1), endogenous in rat brain (rat (endogenous in rat brain)) (UniProt B2RYF7); assay: co-IP; rat brain lysate; endogenous proteins immunoprecipitated with antibodies against them, then immunoblotted
T1 sequence: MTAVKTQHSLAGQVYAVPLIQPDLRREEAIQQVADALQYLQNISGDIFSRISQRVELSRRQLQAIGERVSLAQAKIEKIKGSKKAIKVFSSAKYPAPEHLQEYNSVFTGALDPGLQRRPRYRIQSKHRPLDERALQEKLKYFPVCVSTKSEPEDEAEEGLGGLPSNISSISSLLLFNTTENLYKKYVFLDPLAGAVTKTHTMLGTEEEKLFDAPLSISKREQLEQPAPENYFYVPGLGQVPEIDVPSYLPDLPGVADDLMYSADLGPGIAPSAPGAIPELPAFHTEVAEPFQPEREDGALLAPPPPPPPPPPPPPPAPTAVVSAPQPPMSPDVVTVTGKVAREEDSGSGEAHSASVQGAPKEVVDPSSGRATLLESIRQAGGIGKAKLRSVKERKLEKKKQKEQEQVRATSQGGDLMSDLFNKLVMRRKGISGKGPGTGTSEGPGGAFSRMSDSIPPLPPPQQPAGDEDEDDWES

[2] = molecular target: VPS26, endogenous in rat brain (rat (endogenous in rat brain)); assay: as above

binding [1]: binds
Molecule: VPS26, endogenous in rat brain

binding [2]: binds
B1: Wash1 (Wiskott–Aldrich Syndrome Protein and SCAR Homologue 1), endogenous in rat brain (protein, UniProt B2RYF7 1-475)
chain: T1 sequence
